Sequences of proteins named here, by UniProt entry; tags and fusion partners are left off.
UniProt P11940, whole entry: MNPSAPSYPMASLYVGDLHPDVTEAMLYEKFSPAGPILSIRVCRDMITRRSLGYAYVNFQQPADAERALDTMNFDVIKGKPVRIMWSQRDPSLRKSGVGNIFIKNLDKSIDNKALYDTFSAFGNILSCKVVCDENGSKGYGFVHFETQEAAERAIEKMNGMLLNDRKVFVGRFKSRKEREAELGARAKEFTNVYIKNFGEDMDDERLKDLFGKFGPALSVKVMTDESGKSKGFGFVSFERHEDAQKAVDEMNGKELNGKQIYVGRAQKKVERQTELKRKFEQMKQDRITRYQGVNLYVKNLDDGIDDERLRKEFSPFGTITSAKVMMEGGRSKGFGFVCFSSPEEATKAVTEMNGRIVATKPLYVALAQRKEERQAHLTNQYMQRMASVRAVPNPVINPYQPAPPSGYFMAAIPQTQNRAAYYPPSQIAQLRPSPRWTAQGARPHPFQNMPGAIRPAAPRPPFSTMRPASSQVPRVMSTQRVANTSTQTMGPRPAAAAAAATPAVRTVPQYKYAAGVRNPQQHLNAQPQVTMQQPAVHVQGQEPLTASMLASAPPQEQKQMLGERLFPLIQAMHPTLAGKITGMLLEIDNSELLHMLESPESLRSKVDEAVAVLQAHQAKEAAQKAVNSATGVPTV

This is one part of the list.
What follows are molecules tested against Polyadenylate-binding protein 1 (Homo sapiens) (UniProt P11940) (assay: PABP poly(A) RNA binding inhibitors, primary screen, biochemical, fluorescence polarization, uHTS (AID 2014)). Details: confirmation repeats, at 20 µM, stronger effect = higher value.
Molecule `O=[N+]([O-])c1cc([N+](=O)[O-])c(-c2ccn[nH]2)s1` has an inhibition of 7.3%. `CCOC(=O)Nc1ccc([As](=O)(O)O)c(O)c1` was tested, and the inhibition was 77.9%. `CS(=O)(=O)c1cc([N+](=O)[O-])c2no[n+]([O-])c2c1` showed an inhibition of 67.2%. `CC(C)(C)C(=O)NC(Sc1ccccc1)C(Cl)(Cl)Cl` (stereo not drawn) was tested, and the inhibition was 9.7%. In the case of `COc1ccc(OP(C)(=O)Nc2ccc(SC(F)(F)F)cc2)cc1` (stereo not drawn), the inhibition is reported as 1.2%. For `CC(=O)NC(SC(=S)N(C)C)C(Cl)(Cl)Cl` (stereo not drawn), the inhibition was 76.6%. In the case of `O=[N+]([O-])c1ccc(O)c(/C=N/Nc2ccc([N+](=O)[O-])cc2[N+](=O)[O-])c1`, the inhibition is reported as 12.4%. `O=[N+]([O-])c1cc([N+](=O)[O-])c(CCN2CCOCC2)c([N+](=O)[O-])c1` gave an inhibition of 67.5%.
